What all share (assay): log2 fold change, soluble protein after heating vs DMSO (PISA); higher = thermal stabilisation; K562 lysate, 10 uM; active = over 0.2 and 3.5 SD of the protein, either way, in both replicates (recomputed)
Compound in one test: O=C(CCCCCCC(=O)Nc1ccccc1)NO [vorinostat]
In short, it runs like this:
(§1)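 Soluble protein was defined as the supernatant remaining after 21,000xg for 90 min, following pooling of heated aliquots and adjustment to 0.5% NP-40 at 4°C. Before that, crude K562 extract at 1 mg/mL protein in PBS pH 7.4 with 1 mM MgCl2 was treated with 10 μM compound for 30 min and heated for 3 min across 48°C-58°C. Quantification used TMTpro 16plex LC-MS/MS with channel sums equalised, and values are log-two fold changes in thermal stability relative to solvent controls from duplicates.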

The chains behind the UniProt entries cited, without tags or fusion partners. Where a name states a change or a piece, a line headed by the entry shows the natural chain unless it says otherwise.
UniProt Q9H920: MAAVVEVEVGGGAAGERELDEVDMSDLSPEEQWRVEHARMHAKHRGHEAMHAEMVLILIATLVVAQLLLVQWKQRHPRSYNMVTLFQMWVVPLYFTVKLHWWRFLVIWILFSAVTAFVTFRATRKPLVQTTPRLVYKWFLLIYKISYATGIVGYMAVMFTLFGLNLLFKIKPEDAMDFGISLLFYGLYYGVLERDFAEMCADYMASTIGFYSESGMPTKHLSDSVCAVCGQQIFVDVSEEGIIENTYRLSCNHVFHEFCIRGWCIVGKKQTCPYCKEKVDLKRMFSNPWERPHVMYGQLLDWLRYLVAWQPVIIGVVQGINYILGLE
UniProt Q6ZS11: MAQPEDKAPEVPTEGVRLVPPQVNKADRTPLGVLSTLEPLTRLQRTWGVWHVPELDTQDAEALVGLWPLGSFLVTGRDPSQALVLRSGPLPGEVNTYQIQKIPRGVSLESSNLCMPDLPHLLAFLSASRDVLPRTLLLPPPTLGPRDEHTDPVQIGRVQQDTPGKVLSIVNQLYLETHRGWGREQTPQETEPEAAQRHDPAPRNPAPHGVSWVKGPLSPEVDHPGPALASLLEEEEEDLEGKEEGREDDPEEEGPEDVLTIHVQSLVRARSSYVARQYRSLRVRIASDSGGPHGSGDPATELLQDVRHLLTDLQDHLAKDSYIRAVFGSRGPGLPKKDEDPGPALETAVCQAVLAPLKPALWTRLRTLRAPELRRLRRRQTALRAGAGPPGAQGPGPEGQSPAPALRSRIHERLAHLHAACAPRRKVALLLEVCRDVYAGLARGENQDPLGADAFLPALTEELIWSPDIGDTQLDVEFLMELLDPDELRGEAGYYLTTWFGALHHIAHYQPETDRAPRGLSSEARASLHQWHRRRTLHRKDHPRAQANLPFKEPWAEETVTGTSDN
UniProt Q5M7Z0: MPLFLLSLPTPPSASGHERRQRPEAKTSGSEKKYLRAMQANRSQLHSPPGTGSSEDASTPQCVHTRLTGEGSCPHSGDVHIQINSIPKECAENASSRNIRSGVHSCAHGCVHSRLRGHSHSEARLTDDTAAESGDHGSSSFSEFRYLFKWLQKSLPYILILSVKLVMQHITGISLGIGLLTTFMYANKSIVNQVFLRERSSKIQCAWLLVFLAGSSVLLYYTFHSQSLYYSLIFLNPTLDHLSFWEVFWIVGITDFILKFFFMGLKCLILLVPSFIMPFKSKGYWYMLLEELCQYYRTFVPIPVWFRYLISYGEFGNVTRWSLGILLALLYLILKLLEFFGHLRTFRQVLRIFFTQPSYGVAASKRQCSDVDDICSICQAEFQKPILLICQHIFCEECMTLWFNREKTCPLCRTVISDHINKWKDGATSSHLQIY
UniProt O43567: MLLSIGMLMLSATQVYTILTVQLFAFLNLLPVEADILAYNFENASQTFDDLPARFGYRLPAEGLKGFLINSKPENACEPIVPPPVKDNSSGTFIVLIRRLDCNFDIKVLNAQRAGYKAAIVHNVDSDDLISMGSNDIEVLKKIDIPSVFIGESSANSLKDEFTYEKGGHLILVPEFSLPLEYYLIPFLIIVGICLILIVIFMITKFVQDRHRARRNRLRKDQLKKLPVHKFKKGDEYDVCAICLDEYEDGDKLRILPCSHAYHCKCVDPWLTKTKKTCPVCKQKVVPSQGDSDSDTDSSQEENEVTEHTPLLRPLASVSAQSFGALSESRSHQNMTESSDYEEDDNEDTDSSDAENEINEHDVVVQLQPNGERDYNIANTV
UniProt Q86UA6: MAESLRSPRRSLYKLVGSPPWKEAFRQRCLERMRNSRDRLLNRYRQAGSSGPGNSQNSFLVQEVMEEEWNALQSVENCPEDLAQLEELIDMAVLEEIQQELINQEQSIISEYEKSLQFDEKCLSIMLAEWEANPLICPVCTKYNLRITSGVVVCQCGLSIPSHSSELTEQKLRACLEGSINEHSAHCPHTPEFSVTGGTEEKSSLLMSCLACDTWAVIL
UniProt Q9HCK4: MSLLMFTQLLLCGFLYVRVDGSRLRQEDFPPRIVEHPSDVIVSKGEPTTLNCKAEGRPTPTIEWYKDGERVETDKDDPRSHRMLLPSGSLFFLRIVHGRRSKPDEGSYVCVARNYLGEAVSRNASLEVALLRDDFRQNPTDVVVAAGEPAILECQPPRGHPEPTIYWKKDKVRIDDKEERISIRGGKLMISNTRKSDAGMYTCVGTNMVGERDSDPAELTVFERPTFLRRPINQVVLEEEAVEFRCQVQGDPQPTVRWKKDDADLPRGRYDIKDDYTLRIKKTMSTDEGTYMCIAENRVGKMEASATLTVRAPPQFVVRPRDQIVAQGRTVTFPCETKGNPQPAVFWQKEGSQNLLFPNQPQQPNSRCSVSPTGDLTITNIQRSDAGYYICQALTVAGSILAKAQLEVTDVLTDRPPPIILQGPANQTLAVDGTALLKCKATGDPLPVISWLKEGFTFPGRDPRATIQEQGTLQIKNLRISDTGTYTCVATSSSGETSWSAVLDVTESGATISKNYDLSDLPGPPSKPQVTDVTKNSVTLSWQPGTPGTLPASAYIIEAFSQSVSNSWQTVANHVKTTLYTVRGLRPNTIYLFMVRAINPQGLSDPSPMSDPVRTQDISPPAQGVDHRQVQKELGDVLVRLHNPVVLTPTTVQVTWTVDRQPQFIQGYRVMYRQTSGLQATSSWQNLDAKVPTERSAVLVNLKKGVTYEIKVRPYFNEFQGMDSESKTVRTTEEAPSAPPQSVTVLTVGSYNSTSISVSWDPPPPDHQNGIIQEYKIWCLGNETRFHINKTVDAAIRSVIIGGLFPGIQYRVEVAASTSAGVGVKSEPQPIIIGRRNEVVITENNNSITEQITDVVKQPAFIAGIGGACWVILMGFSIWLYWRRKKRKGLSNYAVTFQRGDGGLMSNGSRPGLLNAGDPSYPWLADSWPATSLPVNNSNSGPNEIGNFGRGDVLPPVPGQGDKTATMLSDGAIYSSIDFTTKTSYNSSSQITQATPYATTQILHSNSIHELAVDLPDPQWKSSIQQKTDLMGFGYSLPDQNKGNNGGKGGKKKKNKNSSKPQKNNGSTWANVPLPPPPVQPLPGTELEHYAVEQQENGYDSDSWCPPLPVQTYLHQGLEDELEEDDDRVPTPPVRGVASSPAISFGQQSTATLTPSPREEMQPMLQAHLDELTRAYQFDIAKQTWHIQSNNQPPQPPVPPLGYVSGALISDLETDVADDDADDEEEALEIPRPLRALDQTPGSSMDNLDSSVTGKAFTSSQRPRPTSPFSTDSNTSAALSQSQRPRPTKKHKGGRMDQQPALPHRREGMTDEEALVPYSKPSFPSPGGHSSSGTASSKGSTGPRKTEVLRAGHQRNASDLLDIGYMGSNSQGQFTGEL
UniProt P08922: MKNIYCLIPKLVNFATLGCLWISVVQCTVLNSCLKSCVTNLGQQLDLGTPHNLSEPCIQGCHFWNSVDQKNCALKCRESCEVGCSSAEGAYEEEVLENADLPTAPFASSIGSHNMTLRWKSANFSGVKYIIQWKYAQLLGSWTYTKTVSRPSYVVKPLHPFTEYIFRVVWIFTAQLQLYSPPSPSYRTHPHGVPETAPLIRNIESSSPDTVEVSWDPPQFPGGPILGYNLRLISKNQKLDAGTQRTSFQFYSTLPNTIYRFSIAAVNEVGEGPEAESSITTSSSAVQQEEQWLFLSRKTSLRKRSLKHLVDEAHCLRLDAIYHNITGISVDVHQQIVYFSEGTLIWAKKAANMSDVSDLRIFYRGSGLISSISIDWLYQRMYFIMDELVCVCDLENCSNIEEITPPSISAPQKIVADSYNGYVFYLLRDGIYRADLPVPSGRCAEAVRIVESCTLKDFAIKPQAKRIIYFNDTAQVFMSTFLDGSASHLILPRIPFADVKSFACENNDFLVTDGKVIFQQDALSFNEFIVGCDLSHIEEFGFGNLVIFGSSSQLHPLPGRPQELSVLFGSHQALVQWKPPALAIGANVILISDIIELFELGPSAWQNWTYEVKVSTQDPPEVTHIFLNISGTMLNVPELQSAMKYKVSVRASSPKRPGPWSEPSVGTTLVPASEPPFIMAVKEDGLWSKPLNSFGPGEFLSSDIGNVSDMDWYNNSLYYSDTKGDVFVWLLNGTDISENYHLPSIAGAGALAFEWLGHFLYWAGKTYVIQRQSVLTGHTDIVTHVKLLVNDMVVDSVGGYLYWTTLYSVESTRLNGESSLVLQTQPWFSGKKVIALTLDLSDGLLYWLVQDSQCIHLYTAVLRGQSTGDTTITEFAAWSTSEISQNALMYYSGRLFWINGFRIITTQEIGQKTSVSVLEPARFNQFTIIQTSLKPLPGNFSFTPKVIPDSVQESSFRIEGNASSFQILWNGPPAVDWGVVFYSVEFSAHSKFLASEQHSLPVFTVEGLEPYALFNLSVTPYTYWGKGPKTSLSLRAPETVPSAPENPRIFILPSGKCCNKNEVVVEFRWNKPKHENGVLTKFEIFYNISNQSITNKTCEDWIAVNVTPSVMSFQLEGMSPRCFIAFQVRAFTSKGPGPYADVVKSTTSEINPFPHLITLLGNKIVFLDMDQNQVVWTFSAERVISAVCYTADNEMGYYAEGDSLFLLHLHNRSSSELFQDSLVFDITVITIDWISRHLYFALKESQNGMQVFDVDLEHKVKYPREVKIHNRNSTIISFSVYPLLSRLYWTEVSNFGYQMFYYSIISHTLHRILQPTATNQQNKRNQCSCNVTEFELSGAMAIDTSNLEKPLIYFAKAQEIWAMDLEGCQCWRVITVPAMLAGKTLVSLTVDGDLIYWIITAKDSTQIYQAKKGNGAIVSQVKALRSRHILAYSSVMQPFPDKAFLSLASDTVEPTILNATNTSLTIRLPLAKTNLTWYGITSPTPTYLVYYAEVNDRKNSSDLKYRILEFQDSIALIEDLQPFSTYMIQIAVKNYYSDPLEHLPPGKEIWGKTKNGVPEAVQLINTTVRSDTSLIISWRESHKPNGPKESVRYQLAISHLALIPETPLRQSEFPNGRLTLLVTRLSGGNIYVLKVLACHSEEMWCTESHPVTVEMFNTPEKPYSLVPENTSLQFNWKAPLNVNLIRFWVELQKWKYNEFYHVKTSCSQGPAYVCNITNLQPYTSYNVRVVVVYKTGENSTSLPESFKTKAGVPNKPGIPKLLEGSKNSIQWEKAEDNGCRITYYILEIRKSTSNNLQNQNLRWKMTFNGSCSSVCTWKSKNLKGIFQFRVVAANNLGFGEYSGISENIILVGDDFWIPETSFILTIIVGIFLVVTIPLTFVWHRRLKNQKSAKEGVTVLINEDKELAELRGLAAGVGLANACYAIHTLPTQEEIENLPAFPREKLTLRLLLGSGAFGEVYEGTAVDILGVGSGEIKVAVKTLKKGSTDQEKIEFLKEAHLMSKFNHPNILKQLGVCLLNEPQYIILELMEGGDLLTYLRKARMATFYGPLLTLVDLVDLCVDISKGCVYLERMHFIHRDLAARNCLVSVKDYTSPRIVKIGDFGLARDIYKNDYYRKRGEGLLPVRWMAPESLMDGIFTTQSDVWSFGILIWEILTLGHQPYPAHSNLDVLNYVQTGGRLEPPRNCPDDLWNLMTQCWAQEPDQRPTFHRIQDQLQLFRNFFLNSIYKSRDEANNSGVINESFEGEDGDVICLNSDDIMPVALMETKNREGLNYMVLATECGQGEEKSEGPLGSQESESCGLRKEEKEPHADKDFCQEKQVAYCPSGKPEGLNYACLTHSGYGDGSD
UniProt Q8N5U6: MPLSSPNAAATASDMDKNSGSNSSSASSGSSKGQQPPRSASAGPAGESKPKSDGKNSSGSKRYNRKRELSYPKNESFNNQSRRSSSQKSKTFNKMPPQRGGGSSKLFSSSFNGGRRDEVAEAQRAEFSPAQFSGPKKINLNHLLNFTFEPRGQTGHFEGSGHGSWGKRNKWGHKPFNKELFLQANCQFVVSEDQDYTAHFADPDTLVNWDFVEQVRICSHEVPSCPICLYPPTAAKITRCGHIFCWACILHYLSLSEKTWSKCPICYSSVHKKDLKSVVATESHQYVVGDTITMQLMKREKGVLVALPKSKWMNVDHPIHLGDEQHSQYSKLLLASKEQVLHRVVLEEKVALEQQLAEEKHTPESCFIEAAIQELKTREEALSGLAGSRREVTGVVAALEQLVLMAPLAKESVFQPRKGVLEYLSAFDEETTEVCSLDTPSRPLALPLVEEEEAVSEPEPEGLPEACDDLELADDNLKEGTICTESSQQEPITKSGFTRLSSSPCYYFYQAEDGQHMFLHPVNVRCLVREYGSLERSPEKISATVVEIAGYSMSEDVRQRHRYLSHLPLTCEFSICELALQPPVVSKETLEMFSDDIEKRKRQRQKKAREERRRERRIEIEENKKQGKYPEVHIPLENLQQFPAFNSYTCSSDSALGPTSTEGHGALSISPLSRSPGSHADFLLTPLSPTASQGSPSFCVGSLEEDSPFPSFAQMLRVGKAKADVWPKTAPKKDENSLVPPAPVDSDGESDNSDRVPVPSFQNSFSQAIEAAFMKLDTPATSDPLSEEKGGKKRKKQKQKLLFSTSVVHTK

Compound in the next test: O=C(O)c1ccc2c(c1)nc(Nc1cccc(Cl)c1)c1ccncc12 [silmitasertib]
An outline of the steps:
as §1

Compound in test [1]: O=C1NC(=O)C(c2cnc3ccccn23)=C1c1cn2c3c(cc(F)cc13)CN(C(=O)N1CCCCC1)CC2
An outline of the steps:
as §1

Compound in test [2]: NCC(=O)Nc1ccc(-n2nc(C(F)(F)F)cc2-c2ccc3c(ccc4ccccc43)c2)cc1
In short, it runs like this: as §1

Compound in another test: c1cn2cc(-c3ccc4cn[nH]c4c3)nc(Nc3ccc(N4CCOCC4)cc3)c2n1 [entospletinib]
An outline of the steps: as §1

This is one part of the list.

RNF121 (UniProt Q9H920): the log2 fold change is inactive: 0.081 with vorinostat, inactive: -0.065 with silmitasertib and inactive: 0.01 in test [1].
For the target RNPC3 (UniProt Q96LT9), the log2 fold change with vorinostat was active: -0.488; in the test with silmitasertib it was inactive: 0.145; in test [1], inactive: 0.036.
Consider RPGR (UniProt Q92834), for which the log2 fold change in test [1] was inactive: -0.028.
For RNF24 isoform 2 (UniProt Q9Y225), the figures for the log2 fold change (in the test with vorinostat; in the test with silmitasertib; in test [1]) were active: 0.918, inactive: -0.117 and inactive: 0.016, respectively.
Turning to RNF4 (UniProt P78317), the log2 fold change is inactive: -0.063 in test [2], inactive: 0.175 in test [1] and inactive: -0.079 with entospletinib.
In the case of RNF185 (UniProt Q96GF1), the log2 fold change was inactive: -0.138 with vorinostat and inactive: 0.06 in the test with silmitasertib.
Consider RNF5 (UniProt Q99942), for which the log2 fold change in the test with vorinostat was inactive: 0.021; with silmitasertib it was inactive: 0.076; in test [1] it was inactive: 0.108; in the test with entospletinib it was inactive: -0.022.
RNF169 (UniProt Q8NCN4): the log2 fold change with vorinostat was inactive: -0.227; with silmitasertib, inactive: 0.108; in test [1], inactive: 0.015.
For RINL (UniProt Q6ZS11), the log2 fold change with vorinostat is inactive: -0.236; in the test with silmitasertib it was inactive: 0.031; with entospletinib, inactive: -0.372.
Regarding RPL32 (UniProt D3YTI8), the log2 fold change with vorinostat is inactive: 0.187; with silmitasertib, inactive: -0.06.
Regarding RPF1 (UniProt Q9H9Y2), the log2 fold change in test [1] is inactive: 0.069.
For the target ROGDI (UniProt Q9GZN7), the log2 fold change was inactive: -0.043 in the test with vorinostat, inactive: 0.12 in the test with silmitasertib and inactive: 0.046 in test [1].
Regarding RNFT1 (UniProt Q5M7Z0), the log2 fold change with vorinostat is inactive: 0.081; in the test with silmitasertib, inactive: 0.099; in the test with entospletinib, inactive: -0.016.
Consider RNF167 (UniProt Q9H6Y7), for which, in test [1], the log2 fold change is inactive: -0.023.
For the target RHOBTB3 (UniProt O94955), the log2 fold change is inactive: -0.249 with vorinostat, inactive: 0.42 with silmitasertib and inactive: -0.044 with entospletinib.
RNF13 (UniProt O43567): the log2 fold change was inactive: 0.036 with vorinostat and inactive: -0.029 in the test with silmitasertib.
With ROCK1 (UniProt Q13464), the log2 fold change in test [2] is inactive: 0; with vorinostat it was active: -0.211; in test [1] it was inactive: -0.017; in the test with entospletinib it was inactive: -0.016.
Consider RNF130 (UniProt Q86XS8), for which the log2 fold change in test [2] was inactive: 0.084; in test [1], inactive: -0.174.
In the case of RILPL2 (UniProt Q969X0), the figures for the log2 fold change (with vorinostat; in the test with silmitasertib; in test [1]) were inactive: -0.075, inactive: -0.073 and inactive: 0.037, respectively.
With RPAIN isoform 8 (UniProt Q86UA6), the log2 fold change was inactive: -0.063 in test [2] and inactive: -0.001 with entospletinib.
As for RIOK2 (UniProt Q9BVS4), the log2 fold change is inactive: -0.022 in test [2]; inactive: -0.098 with vorinostat; inactive: 0.096 with silmitasertib; inactive: 0.008 in test [1]; inactive: 0.315 in the test with entospletinib.
Take RPL10, A0A087WV22: the log2 fold change was inactive: 0.347 in the test with vorinostat, inactive: 0.183 with silmitasertib and inactive: 0.201 in test [1].
Consider RIPOR1 isoform 4 (UniProt Q6ZS17), for which the log2 fold change in test [2] was inactive: -0.005; in the test with vorinostat, inactive: -0.206; with silmitasertib, inactive: 0.103; in test [1] it was inactive: -0.033; in the test with entospletinib, inactive: -0.173.
On to RNF8 (UniProt O76064), for which the log2 fold change with vorinostat was inactive: -0.164; with silmitasertib, inactive: -0.016; in test [1], inactive: 0.069; with entospletinib, inactive: 0.143.
The corresponding values for RNF17 (UniProt Q9BXT8) are inactive: -0.016, inactive: -0.021, inactive: -0.106 and inactive: 0.107.
Take RING1 (UniProt Q06587): the log2 fold change in test [2] is inactive: 0.027; with vorinostat, inactive: -0.138; with silmitasertib, inactive: -0.008; in test [1], inactive: 0.044; in the test with entospletinib, inactive: 0.028.
For the target ROBO2 isoform 3 (UniProt Q9HCK4), the log2 fold change with vorinostat is inactive: 0.136; in the test with silmitasertib, inactive: -0.019; in test [1] it was inactive: -0.042.
For RLF (UniProt Q13129), in test [1], the log2 fold change is inactive: 0.047.
Regarding ROS1 (UniProt P08922), the log2 fold change in test [2] is inactive: 0.025; in test [1] it was inactive: -0.009; with entospletinib it was inactive: 0.073.
As for RLIM (UniProt Q9NVW2), in test [1], the log2 fold change is inactive: 0.289.
Turning to RNF10 isoform 2 (UniProt Q8N5U6), the log2 fold change in the test with vorinostat was inactive: 0.028; in the test with silmitasertib, inactive: 0.07; in test [1] it was inactive: -0.039; in the test with entospletinib, inactive: 0.038.
As for RHPN2 (UniProt Q8IUC4), the log2 fold change is inactive: 0.09 with vorinostat, inactive: -0.077 with silmitasertib, inactive: 0.003 in test [1] and inactive: 0.184 with entospletinib.
For the target RPL15, A0A2R8Y738, the values for the log2 fold change in the test with vorinostat and in the test with silmitasertib were inactive: 0.096 and inactive: 0.379, respectively.
In the case of RHOQ (UniProt P17081), the results for the log2 fold change (in test [2]; in the test with entospletinib) were inactive: 0.199 and inactive: -0.132, respectively.
As to RNF111 isoform 3 (UniProt Q6ZNA4), the log2 fold change in test [1] was inactive: -0.028.

Source of the values: the supplement of paper PMC10849652.
